Values from PubChem BioAssay AID1259308 (NCATS, 2017)
Assay: 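Knock-downs that increase output of a recombinant reporter protein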 (primary screen). Cells: human HEK293 embryonic kidney cells stably expressing firefly luciferase (HEK-CMV-Luc2-Hygro). Reagents: single siRNA against human genes, 0.8 pmol siRNA per well. Time to read-out: 72 h. Measurement: 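Luciferase light (ONE-Glo) measured on one replicate plate set and viability (CellTiter-Glo) on the other, scaled to a negative control siRNA, with robust z-scores and luciferase per cell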. Scale: total luciferase, z-score and total luciferase, % of control: higher = more reporter protein produced; luciferase per cell, z-score: higher = more reporter output per viable cell; viable cells, % of control: higher = more viable cells. Hit rule: 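An siRNA counts as active if its total luciferase robust z-score exceeds 3; genes with two or more such siRNAs out of three were retested with fresh siRNAs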. Calls: active = raised luciferase; inactive = no rise.
This is an unselected part of about 59,000 reagents. About 1,510 of them (2.6%) count as active. 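Calls use total luciferase alone and ignore viability, so some active siRNAs may act by altering cell number.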 Entries without a mark were called inactive. Reagents against one gene are numbered here.

The opening 4 entries, to show the layout:
gene knocked down	reagent no.	total luciferase, z-score	total luciferase, % of control	luciferase per cell, z-score	viable cells, % of control
BRME1 (GeneID 79173)	1	0.674	95.3	0.00487	106
BRME1 (GeneID 79173)	2	0.267	87.2	0.106	94.8
BRME1 (GeneID 79173)	3	0.289	87.6	-0.39	109
CLIC2 (GeneID 1193)	1	-0.331	75.3	-0.681	101

Main list, from the start:
gene knocked down	reagent no.	total luciferase, z-score	total luciferase, % of control	luciferase per cell, z-score	viable cells, % of control
BRME1 (GeneID 79173)	1	0.674	95.3	0.00487	106
BRME1 (GeneID 79173)	2	0.267	87.2	0.106	94.8
BRME1 (GeneID 79173)	3	0.289	87.6	-0.39	109
CLIC2 (GeneID 1193)	1	-0.331	75.3	-0.681	101
CLIC2 (GeneID 1193)	2	-0.421	73.5	-0.713	99.1
CLIC2 (GeneID 1193)	3	-1.34	55.3	-0.365	68
LINGO3 (GeneID 645191)	1	-0.173	78.4	-0.498	99.9
LINGO3 (GeneID 645191)	2	1.29	107	0.676	100
LINGO3 (GeneID 645191)	3	0.927	100	0.765	91.7
AIF1 (GeneID 199)	1	-1.3	56	-1.38	90
AIF1 (GeneID 199)	2	-0.111	79.7	-0.734	108
AIF1 (GeneID 199)	3	-2	42	-1.79	75.1
KRT1 (GeneID 3848)	1	-0.0605	80.7	0.4	81.1
KRT1 (GeneID 3848)	2	-0.841	65.2	-1.05	96.1
KRT1 (GeneID 3848)	3	-0.799	66	-1.47	109
SH2D4A (GeneID 63898)	1	-0.775	66.5	-0.86	93.2
SH2D4A (GeneID 63898)	2	2.14	124	1.61	91
SH2D4A (GeneID 63898)	3	-0.727	67.4	-0.08	77
TMEM74B (GeneID 55321)	1	0.212	86.1	0.686	80.3
TMEM74B (GeneID 55321)	2	0.0664	83.2	0.209	88
TMEM74B (GeneID 55321)	3	-1.54	51.3	3.44	23.2
CES2 (GeneID 8824)	1	2.44	130	1.84	89.8
CES2 (GeneID 8824)	2	0.0412	82.7	0.291	85.6
CES2 (GeneID 8824)	3	-1.29	56.2	-1.66	97.2
PSMD5 (GeneID 5711)	1	0.539	92.6	0.291	95.8
PSMD5 (GeneID 5711)	2	1.1	104	0.684	96.9
PSMD5 (GeneID 5711)	3	-0.175	78.4	-0.591	102
OBSL1 (GeneID 23363)	1	0.231	86.5	0.462	85.6
OBSL1 (GeneID 23363)	2	-0.117	79.6	-0.0232	89.5
OBSL1 (GeneID 23363)	3	-0.658	68.8	0.387	69.4
GRIA4 (GeneID 2893)	1	-0.354	74.8	-0.16	87.2
GRIA4 (GeneID 2893)	2	0.0691	83.3	0.126	90
GRIA4 (GeneID 2893)	3	0.775	97.3	0.0146	108
TMEM71 (GeneID 137835)	1	0.504	91.9	-0.415	115
TMEM71 (GeneID 137835)	2	0.199	85.9	0.0595	94.4
TMEM71 (GeneID 137835)	3	0.401	89.9	-0.604	118
EIF4EBP1 (GeneID 1978)	1	-0.0275	81.3	-0.197	95.7
EIF4EBP1 (GeneID 1978)	2	-1.37	54.7	-1.61	93.5
EIF4EBP1 (GeneID 1978)	3	1.09	104	1.58	76.4
